The list is a part of this screen's results and no random one: it gathers tests that were run many times, whatever their T/C, doses with no T/C, and many T/C values between a quarter and a half above the control. Further doses and runs are listed elsewhere. T/C: endpoint of the treated group in % of that of the vehicle group. Some entries give survivors of the animals treated and no T/C: the source files T/C as zero there, which appears to mark a toxic dose or a test without result, not a measured value. Some doses without a T/C left all or most animals alive at the check, yet need not have been tolerated: the source hardly ever lists a survival T/C far under the control, and the zero likely stands for such cases as well. Counts of survivors are from the toxicity check (mostly the fifth day) where no day follows; animals may have died later. Schedule codes are those of the source, read here as Q, the interval in days (D) or hours (H), X, the number of doses. For survival time, the PubChem record calls one and a half times the control and up active, and a quarter to a half above the control has no call in these data; cut-offs in other NCI protocols can differ. Some T/C values carry the count of animals alive at the toxicity check (mostly the fifth day); where none is given, no animal had died by that day. Some entries hold several experiments; the values are given in rising order.
System: P388 leukemia ip, CD2F1 mice, survival T/C
Assay: NCI In Vivo Anticancer Drug Screen. Data for tumor model P388 Leukemia (intraperitoneal) in CD2F1 (CDF1) mice
Settings: T/C endpoint: median survival time, higher T/C = longer survival
[1] = dose: 100.0 mg/kg/injection, schedule: Q01DX009 (ip), vehicle: other
[2] = dose: 200.0 mg/kg/injection, schedule: Q01DX009 (ip), vehicle: saline with Tween-80
[3] = dose: 50.0 mg/kg/injection, schedule: Q01DX009 (ip), vehicle: saline
[4] = dose: 100.0 mg/kg/injection, schedule: Q01DX009 (ip), vehicle: saline
[5] = dose: 100.0 mg/kg/injection, schedule: Q01DX005 (ip), vehicle: Klucel (hydroxypropylcellulose) (HPC)
[6] = dose: 200.0 mg/kg/injection, schedule: Q01DX005 (ip), vehicle: Klucel (hydroxypropylcellulose) (HPC)

SMILES: CS(=O)(=O)[O][Sn]([CH3])([CH3])[O]S(C)(=O)=O
- survivor count (dose: 100.0 mg/kg/injection, schedule: Q04DX003 (ip), vehicle: saline): 0 of 6
- survivor count (dose: 200.0 mg/kg/injection, schedule: Q04DX003 (ip), vehicle: saline): 0 of 6
- survivor count (dose: 400.0 mg/kg/injection, schedule: Q04DX003 (ip), vehicle: saline): 0 of 6

SMILES: c1ccc2sc(NCCSSCCNc3nc4ccccc4s3)nc2c1
- survivor count [1]: 5 of 6

SMILES: COc1ccc(C(=O)c2no[n+]([O-])c2C(=O)c2ccc(OC)cc2)cc1
- T/C [2]: 126 % of control

SMILES: COc1ccc(OC)c2c(Cl)c(C)cnc12
- survivor count (dose: 100.0 mg/kg/injection, schedule: Q01DX001 (ip), vehicle: Klucel (hydroxypropylcellulose) (HPC)): 0 of 4
- survivor count (dose: 200.0 mg/kg/injection, schedule: Q01DX001 (ip), vehicle: Klucel (hydroxypropylcellulose) (HPC)): 0 of 5
- survivor count (dose: 400.0 mg/kg/injection, schedule: Q01DX001 (ip), vehicle: Klucel (hydroxypropylcellulose) (HPC)): 0 of 5

SMILES: CC(=O)N([Si](C)(C)C)[Si](C)(C)C
- T/C [3]: 95, 96 [5 of 6 alive], 97, 146 % of control
- survivor count [4]: 6 of 6

SMILES: [Cl][Cu][Cl].c1ccc2c(c1)Sc1ccccc1[N+]2=c1ccc2nc3ccccc3sc-2c1
- survivor count (dose: 240.0 mg/kg/injection, schedule: Q01DX005 (ip), vehicle: Klucel (hydroxypropylcellulose) (HPC)): 0 of 6

SMILES: CCOC(=O)CSc1sc(C(=O)OCC)c(N)c1C#N
- survivor count (dose: 100.0 mg/kg/injection, schedule: Q01DX009 (ip), vehicle: saline with Tween-80): 6 of 6
- survivor count [2]: 6 of 6

SMILES: OC(c1ccccc1I1OC(C(F)(F)F)(C(F)(F)F)c2ccccc21)(C(F)(F)F)C(F)(F)F (tested in a mixture with another compound)
- survivor count (dose: 12.5 mg/kg/injection, schedule: Q01DX005 (ip), vehicle: Klucel (hydroxypropylcellulose) (HPC)): 1 of 6
- survivor count (dose: 25.0 mg/kg/injection, schedule: Q01DX005 (ip), vehicle: Klucel (hydroxypropylcellulose) (HPC)): 0 of 6
- survivor count (dose: 50.0 mg/kg/injection, schedule: Q01DX005 (ip), vehicle: Klucel (hydroxypropylcellulose) (HPC)): 0 of 6
- survivor count [5]: 0 of 6
- survivor count [6]: 0 of 6

SMILES: Cc1ccc(O)c2c(NCCCCCCNc3cc(C)[n+](C)c4c(C)ccc(O)c34)cc(C)[n+](C)c12
- survivor count (dose: 50.0 mg/kg/injection, schedule: Q01DX005 (ip), vehicle: saline with Tween-80): 3 of 5
- survivor count (dose: 100.0 mg/kg/injection, schedule: Q01DX005 (ip), vehicle: saline with Tween-80): 3 of 5
- survivor count (dose: 200.0 mg/kg/injection, schedule: Q01DX005 (ip), vehicle: saline with Tween-80): 1 of 5

SMILES: CN(C)C1(c2ccccc2)N=NN=S1C (stereo not given)
- survivor count (dose: 400.0 mg/kg/injection, schedule: Q04DX003 (ip), vehicle: saline with Tween-80): 0 of 6

SMILES: C=CC(C)(C)c1ccc(O)c(CC=C(C)C)c1
- survivor count [5]: 1 of 5
- survivor count [6]: 0 of 5

SMILES: CCc1nc(N)nc(N)c1-c1ccc(NC)c(N)c1
- survivor count (dose: 400.0 mg/kg/injection, schedule: Q04DX002 (ip), vehicle: Klucel (hydroxypropylcellulose) (HPC)): 0 of 6

SMILES: CC1=CC(=Nc2ccc(N(CCCl)CCCl)cc2)C=C(C)C1=O
- T/C (dose: 3.13 mg/kg/injection, schedule: Q01DX009 (ip), vehicle: Klucel (hydroxypropylcellulose) (HPC)): 128 % of control
- T/C (dose: 12.5 mg/kg/injection, schedule: Q01DX009 (ip), vehicle: Klucel (hydroxypropylcellulose) (HPC)): 139 % of control
- T/C (dose: 25.0 mg/kg/injection, schedule: Q01DX009 (ip), vehicle: saline): 137 % of control
- T/C [3]: 133 % of control [5 of 6 alive]
- T/C (dose: 100.0 mg/kg/injection, schedule: Q01DX009 (ip), vehicle: Klucel (hydroxypropylcellulose) (HPC)): 130 % of control
- survivor count [1]: 6 of 6
- T/C [4]: 149 % of control

SMILES: C=CC(=O)NC(N)=NC#N
- survivor count [5]: 0 of 6
- survivor count [6]: 0 of 6

SMILES: CN=C(N)N/N=C(\C)c1ccc(Cl)c(Cl)c1
- survivor count (dose: 100.0 mg/kg/injection, schedule: Q04DX002 (ip), vehicle: saline with Tween-80): 2 of 6

— PubChem BioAssay AID330 (DTP/NCI, 2004)
